For at least one compound, name, drawing or mass did not settle the structure.
Key:
[1] = tested on: runx1/cmyb+ AGM HSCs
Description: A chemical genetic screen was conducted to identify novel pathways that modulate definitive HSC formation during zebrafish embryogenesis. FIG. 1. Genes such as runx1 and cmyb, required for HSC development during mammalian hematopoiesis, are expressed in the ventral wall of the dorsal aorta in a region analogous to the mammalian AGM at thirty-six hours post-fertilization (hpf). […] Wild-type embryos were incubated with individual compounds from the three-somite stage until thirty-six hpf. Probes for runx1 and cmyb were combined and utilized to detect HSCs by in situ hybridization.
Wild-type age-matched embryos were arrayed into 48-well plates (˜5 embryos/well) of individual test compounds and exposed from 3-somites until 36 hpf. […] In situ hybridization for runx1 and cmyb was performed to assess HSCs. Compounds were retested at 10 μM, 20 μM, and 50 μM. Stem cell specificity was assessed using flk1 at 36 hpf. PGE2, PGI2, dmPGE2 and all cox inhibitors (Sigma) were used at 10 μM to 20 μM.
Qualitative scoring (# embryos with altered HSCs/# scored) of runx1/cmyb was conducted using the following criteria: Normal/unchanged=continuous line of runx1/cmyb+ endothelial cells and occasional hematopoietic clusters. Decreased/absent=reduction in runx1/cmyb+ cells, including the presence of large gaps in the line of HSCs, isolated positive cells, or absence of expression. […]

[2] = tested on: vasculature (flk1); details: zebrafish embryos, 36 hpf
Description: Wild-type age-matched embryos were arrayed into 48-well plates (˜5 embryos/well) of individual test compounds and exposed from 3-somites until 36 hpf. Three compound libraries were utilized: NINDS Custom Collection (1040), SpecPlus Collection (960) and BIOMOL ICCB Known Bioactives (480). […] In situ hybridization for runx1 and cmyb was performed to assess HSCs. Compounds were retested at 10 μM, 20 μM, and 50 μM. Stem cell specificity was assessed using flk1 at 36 hpf. PGE2, PGI2, dmPGE2 and all cox inhibitors (Sigma) were used at 10 μM to 20 μM.

[3] = tested on: runx1, lmo2 expression; assay: qPCR on whole KM at day three post-irradiation; format: in vivo, zebrafish
[4] = tested on: embryonic hematopoiesis; assay: RA / DEAB treatment of wild-type and kgg zebrafish embryos; format: in vivo
[5] = tested on: ES cell-derived embryoid bodies; assay: Hematopoietic colonies from ES cell-derived embryoid bodies treated with DEAB or RA; format: cell-based, mouse; details: RA treatment of EBs
Source text: DEAB and RA also affected the formation of mouse hematopoietic progenitors arising from ES cell-derived embryoid bodies (EBs). […] See also Davidson et al., 425 Nature 300-06 (2003); Davidson & Zon, 292(2) Devel. Biol. 506-18 (2006).

In the case of `Cc1ccc(-c2cc(C(F)(F)F)nn2-c2ccc(S(N)(=O)=O)cc2)cc1` [Celecoxib], the “Effect on HSC expression (# embryos altered/# embryos scored)” value ([1]; Table 2, runx1/cmyb+ HSCs, zebrafish embryos, 36 hpf) is reported as “Decrease (26/31)” and the “effect on vasculature / flk1 staining (in words)” value [2] is reported as “remained relatively unchanged”.
For `C=C[C@@]1(C)CC(=O)[C@]2(O)[C@@]3(C)[C@@H](O)CCC(C)(C)[C@@H]3[C@H](O)[C@H](OC(C)=O)[C@@]2(C)O1` [Forskolin], the “effect on AGM HSCs in zebrafish embryos (in words)” value ([1]; exposure from three somites to 36 hpf, runx1/cmyb staining) was “enhance HSC”.
With `CCCCC[C@H](O)/C=C/[C@H]1[C@H](O)CC(=O)[C@@H]1C/C=C\CCCC(=O)O` [PGE2, prostaglandin E2] the “expression of runx1 and lmo2 in KM by qPCR” value [3] was “significant upregulation”.
With `CC1=C(/C=C/C(C)=C/C=C/C(C)=C/C(=O)O)C(C)(C)CCC1` [RA, retinoic acid] the “phenotype of treated wild-type zebrafish embryos” value [4] was “severely anemic” and the “growth of colony types” value [5] was “general inhibition in the growth of all colony types”.

From US10272110B2, “Methods for promoting HSC engraftment” (CHILDREN'S MEDICAL CENTER CORPORATION, priority 2006, dated 2019)
